These are yes or no findings as the source states them, for the method shown. Binding seen in cells or lysates may run through a third protein. Some binding calls cover weakened binding; strength is not graded here.
Columns and labels:
[1] = molecular target: T1, RIP140 (endogenous, mouse embryonic fibroblasts) (mouse (endogenous in MEFs)) (UniProt Q8CBD1); assay: proximity ligation
T1 sequence: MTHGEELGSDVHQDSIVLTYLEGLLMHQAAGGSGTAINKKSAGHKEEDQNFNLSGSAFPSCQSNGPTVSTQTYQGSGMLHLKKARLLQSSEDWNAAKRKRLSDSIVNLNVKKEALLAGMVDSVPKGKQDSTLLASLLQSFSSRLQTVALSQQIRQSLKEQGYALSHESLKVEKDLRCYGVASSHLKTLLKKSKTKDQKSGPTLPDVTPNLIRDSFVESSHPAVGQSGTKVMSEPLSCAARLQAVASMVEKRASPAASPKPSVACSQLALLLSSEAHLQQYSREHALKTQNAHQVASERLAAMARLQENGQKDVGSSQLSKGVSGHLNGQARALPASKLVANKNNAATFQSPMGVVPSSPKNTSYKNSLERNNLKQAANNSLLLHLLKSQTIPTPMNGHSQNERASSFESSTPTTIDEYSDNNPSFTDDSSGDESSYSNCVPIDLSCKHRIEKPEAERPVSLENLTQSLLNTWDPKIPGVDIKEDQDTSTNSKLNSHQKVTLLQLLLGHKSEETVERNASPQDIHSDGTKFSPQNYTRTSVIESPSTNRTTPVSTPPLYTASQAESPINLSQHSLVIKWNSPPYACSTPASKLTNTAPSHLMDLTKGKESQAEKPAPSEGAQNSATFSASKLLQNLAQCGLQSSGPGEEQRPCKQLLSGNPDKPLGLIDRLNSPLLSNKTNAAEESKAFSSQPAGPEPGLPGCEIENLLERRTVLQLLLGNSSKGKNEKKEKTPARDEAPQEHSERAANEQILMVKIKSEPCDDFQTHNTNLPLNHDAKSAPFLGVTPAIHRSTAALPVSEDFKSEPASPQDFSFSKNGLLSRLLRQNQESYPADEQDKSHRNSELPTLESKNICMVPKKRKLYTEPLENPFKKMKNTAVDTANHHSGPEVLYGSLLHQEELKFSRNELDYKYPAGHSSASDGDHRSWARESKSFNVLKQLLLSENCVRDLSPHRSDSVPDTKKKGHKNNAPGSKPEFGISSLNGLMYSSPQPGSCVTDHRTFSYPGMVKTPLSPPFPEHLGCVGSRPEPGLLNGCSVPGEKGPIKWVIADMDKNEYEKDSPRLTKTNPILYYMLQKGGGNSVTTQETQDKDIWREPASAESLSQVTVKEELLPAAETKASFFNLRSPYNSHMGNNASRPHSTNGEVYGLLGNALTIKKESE

The chains behind the UniProt entries cited, without tags or fusion partners.
UniProt P02340: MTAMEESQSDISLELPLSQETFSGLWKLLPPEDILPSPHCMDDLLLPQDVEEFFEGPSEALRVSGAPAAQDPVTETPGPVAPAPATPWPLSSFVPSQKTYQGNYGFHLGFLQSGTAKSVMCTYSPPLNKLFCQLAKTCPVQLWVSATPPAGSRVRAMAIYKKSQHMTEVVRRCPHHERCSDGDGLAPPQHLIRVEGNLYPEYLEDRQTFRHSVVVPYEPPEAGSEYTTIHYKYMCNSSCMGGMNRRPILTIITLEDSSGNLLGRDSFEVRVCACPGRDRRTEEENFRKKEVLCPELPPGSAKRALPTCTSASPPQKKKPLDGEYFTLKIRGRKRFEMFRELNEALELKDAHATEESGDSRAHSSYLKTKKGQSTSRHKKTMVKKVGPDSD
UniProt P97481: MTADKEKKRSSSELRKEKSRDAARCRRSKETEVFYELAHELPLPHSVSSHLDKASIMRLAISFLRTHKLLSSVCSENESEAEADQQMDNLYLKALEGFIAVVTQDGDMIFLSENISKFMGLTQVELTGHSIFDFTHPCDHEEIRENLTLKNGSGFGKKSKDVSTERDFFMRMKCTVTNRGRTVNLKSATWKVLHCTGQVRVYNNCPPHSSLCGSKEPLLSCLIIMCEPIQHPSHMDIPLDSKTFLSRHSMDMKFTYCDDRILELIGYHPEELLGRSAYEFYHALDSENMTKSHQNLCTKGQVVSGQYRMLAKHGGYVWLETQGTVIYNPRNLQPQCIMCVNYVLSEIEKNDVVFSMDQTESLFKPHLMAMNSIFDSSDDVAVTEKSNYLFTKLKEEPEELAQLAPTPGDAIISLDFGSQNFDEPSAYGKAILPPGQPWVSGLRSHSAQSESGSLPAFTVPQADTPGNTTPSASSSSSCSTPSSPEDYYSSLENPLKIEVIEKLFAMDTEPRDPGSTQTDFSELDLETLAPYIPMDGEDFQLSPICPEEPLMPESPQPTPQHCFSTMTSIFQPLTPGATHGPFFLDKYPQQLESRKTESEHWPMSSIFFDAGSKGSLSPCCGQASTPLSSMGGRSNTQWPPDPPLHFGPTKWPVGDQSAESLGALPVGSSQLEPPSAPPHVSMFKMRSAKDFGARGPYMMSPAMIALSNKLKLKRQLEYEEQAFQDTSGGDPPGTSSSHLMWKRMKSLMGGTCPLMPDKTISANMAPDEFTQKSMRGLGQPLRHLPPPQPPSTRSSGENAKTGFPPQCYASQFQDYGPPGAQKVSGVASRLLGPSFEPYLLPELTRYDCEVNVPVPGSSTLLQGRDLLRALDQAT

[2] = molecular target: p53 (endogenous, mouse embryonic fibroblasts) (mouse (endogenous in MEFs)) (UniProt P02340); assay: proximity ligation

| Substance | binding [1] | binding [2] |
| --- | --- | --- |
| p53 (endogenous, mouse embryonic fibroblasts) (from UniProt P02340 1-390) | binds | – |
| HIF-2α (endogenous, mouse embryonic fibroblasts) (from UniProt P97481 1-874) | binds | binds |
